Publication PMC12040169 (PLOS Biology, 2025)
The list shows a part of the results.

Each compound was assayed on T1, CTL2-GFP (C. trachomatis L2/434/Bu, GFP-expressing). Details: bulk GFP, single well; 28.5 h, 10 µM; inhibitor.
T1 construct: L2/434/Bu, GFP-expressing
Parameters: species or system HeLa; Intracellular C. trachomatis growth in HeLa cells, bulk GFP fluorescence relative to DMSO
For `COCCn1c(SCc2ccc([N+](=O)[O-])cc2)nnc1-c1ccccc1` [CBK265937], the “% of control remaining” value was 136.726%.
For `COC(=O)c1ccccc1NC(=O)c1cc2nc(-c3cccs3)cc(C(F)(F)F)n2n1` [CBK262524], the “% of control remaining” value was 119.654%.
With `O=C(NC(c1ccccc1)c1cccnc1)C1CCN(C(=O)NC2CCCCC2)CC1` (stereo not drawn) [CBK060378] the “% of control remaining” value was 152.86%.
In the case of `CCOC(=O)C1CCCN(Cc2cccc(Cl)c2Cl)C1` (stereo not drawn) [CBK307056], the “% of control remaining” value is reported as 121.23%.
In the case of `C(=N\c1nc2ccccc2n1CCN1CCOCC1)/c1ccc2c(c1)OCO2` [CBK262270], the “% of control remaining” value is reported as 101.199%.
`CNC(=O)Nc1cc(C(O)(C(F)(F)F)C(F)(F)F)ccc1C` [CBK006970] was tested, and the “% of control remaining” value was 95.6753%.
In the case of `Cc1ccc(S(=O)(=O)CC(=O)N2CCC3(CCN(C(=O)Cc4c[nH]c5ccccc45)C3)C2)cc1` (stereo not drawn) [CBK131443], the “% of control remaining” value is reported as 129.316%.
With `O=c1cc(Cn2ccnc2)c2cc3c(cc2o1)CCC3` [CBK287813] the “% of control remaining” value was 120.576%.
In the case of `C=C(C)CN1CCN(C(C(=O)O)c2c[nH]c3ccc(OCc4ccccc4)cc23)CC1` (stereo not drawn) [CBK286668], the “% of control remaining” value is reported as 148.334%.
For `Nc1ncc(-c2cccnc2)nc1-c1ccc(C(=O)N2CCOCC2)cc1` [CBK064059], the “% of control remaining” value was 189.824%.
For `CC(=O)N(C)c1nc(-c2ccccc2)ccc1C(=O)NCc1ccco1` [CBK106334], the “% of control remaining” value was 109.536%.
With `Fc1ccc(CNc2c(-c3cccs3)nc3cnccn23)cc1` [CBK283487] the “% of control remaining” value was 88.1967%.
For `Cn1nc([N+](=O)[O-])nc1OCc1nc2ccccc2n1C` [CBK265247], the “% of control remaining” value was 119.502%.
For `COc1cc(-c2nccnc2N[C@@H](CO)C(C)C)cc(OC)c1OC` [CBK038023], the “% of control remaining” value was 106.688%.
For `COc1nccnc1N1CCN(Cc2ccccc2)CC1` [CBK084210], the “% of control remaining” value was 112.176%.
With `COc1ccc(C)cc1-n1ccc(C(=O)NCC2(C)CCCS2)n1` (stereo not drawn) [CBK305355] the “% of control remaining” value was 117.914%.
For `O=C(COc1ccc(Cl)cc1Br)N1CCCCCC1` [CBK058661], the “% of control remaining” value was 116.932%.
`COc1ccc(NC(=O)C(OC)c2ccccc2)cc1Cl` (stereo not drawn) [CBK264098] was tested, and the “% of control remaining” value was 140.656%.
With `Cc1noc(C)c1CCC(=O)N1CC[C@H]2NC(=O)COc3ccccc3C/C=C/C[C@H]2C1` [CBK292115] the “% of control remaining” value was 100.49%.
With `O=C1S/C(=C\c2ccc(O)c([N+](=O)[O-])c2)C(=O)N1Cc1ccc(Cl)cc1` [CBK102929] the “% of control remaining” value was 103.032%.
`Nc1ncc(-c2cccc3cccnc23)nc1NC1CCCCC1` [CBK063613] was tested, and the “% of control remaining” value was 104.489%.
With `O=C(CSCc1ccc([N+](=O)[O-])cc1)Nc1c[nH]c(=O)[nH]c1=O` [CBK268549] the “% of control remaining” value was 115.157%.
With `Cc1cccc(NC(=S)NCCc2ccc(S(N)(=O)=O)cc2)c1C` [CBK264889] the “% of control remaining” value was 100%.
For `CCOc1cccc(-c2cncc(N[C@H](C)c3ccccc3)n2)c1` [CBK066042], the “% of control remaining” value was 100.264%.
With `CC(Oc1ccc(Cl)cc1Cl)C(=O)Nc1sc2c(c1C(N)=O)CCCCCC2` (stereo not drawn) [CBK265394] the “% of control remaining” value was 126.478%.
With `CCOC(=O)C1CSCCN1C(=O)c1cnn(-c2ccc(Br)cc2)c1C` (stereo not drawn) [CBK304550] the “% of control remaining” value was 99.7081%.
With `Nc1ncc2ncn([C@H]3C[C@@H](O)[C@@H](CO)O3)c2n1` [CBK201303] the “% of control remaining” value was 117.602%.
In the case of `O=C(COc1ccc(F)cc1)N1CCCC1c1cccc(Cc2ccccc2)n1` (stereo not drawn) [CBK286214], the “% of control remaining” value is reported as 93.9854%.
For `CCN1C(=O)C2(CC(=O)N(CCCCC(C)C)C2=O)c2cc(C)ccc21` (stereo not drawn) [CBK075173], the “% of control remaining” value was 110.242%.
In the case of `CS(=O)(=O)c1ccc(-c2nc(N)cc3ccccc23)cc1` [CBK085724], the “% of control remaining” value is reported as 121.407%.
With `Cc1cccc(C)c1OCC(=O)Nc1ccccc1C(=O)N1CCOCC1` [CBK270096] the “% of control remaining” value was 110.06%.
In the case of `Cc1cc(Cl)ccc1NC(=O)CN1CCN(Cc2ccccc2)CC1` [CBK269438], the “% of control remaining” value is reported as 100.761%.
In the case of `Cc1cc(CNC(=O)C2(c3ccccc3)CCCC2)no1` [CBK149518], the “% of control remaining” value is reported as 117.682%.
In the case of `O=C(CCCn1ccnc1)NCC1(c2cccc(F)c2)CCCC1` [CBK281500], the “% of control remaining” value is reported as 120.9%.
With `Cn1ccnc1C1(O)CC2CCC(C1)N2C(=O)c1ccc(Cl)cc1` (stereo not drawn) [CBK284087] the “% of control remaining” value was 110.396%.
With `O=C(O)CCC(=O)NCC1(c2ccccc2)CCCC1` [CBK286679] the “% of control remaining” value was 139.203%.
In the case of `Cc1nc2c(c(=O)[nH]1)CC[C@@H]1CN(C(=O)Cc3ccsc3)C[C@H]21` [CBK284411], the “% of control remaining” value is reported as 99.5011%.
In the case of `O=C(N/N=C/C=C/c1ccc([N+](=O)[O-])cc1)C(O)c1ccccc1` (stereo not drawn) [CBK261373], the “% of control remaining” value is reported as 100%.
With `CC(C)(c1ccccc1)c1ccc(OCCCCn2cncn2)cc1` [CBK266405] the “% of control remaining” value was 109.812%.
In the case of `COc1ccc(OCc2nc3ccccc3[nH]2)cc1` [CBK261030], the “% of control remaining” value is reported as 101.571%.
In the case of `Cc1cccc(C)c1NC(=O)CN1CCCN(c2cc(OCCN3C(=O)CCC3=O)ncn2)CC1` [CBK083313T], the “% of control remaining” value is reported as 138.158%.
With `CC(C)(C)C1=CC2=NC3(CCC3)C3C[C@@H](O)[C@@H](O)[C@]3(COCc3ccccc3)N2O1` (stereo partly drawn) [CBK303260] the “% of control remaining” value was 166.377%.
For `CCCC/C=C/c1cnc(N)c(-c2cccc(N)c2)n1` [CBK063954], the “% of control remaining” value was 163.948%.
In the case of `CC(C)Nc1nccnc1Sc1cccs1` [CBK089490], the “% of control remaining” value is reported as 87.7725%.
With `c1ccc(CN2CC[C@H](c3nc4ncccc4[nH]3)C2)cc1` [CBK289383] the “% of control remaining” value was 106.224%.
`Cc1cc(/C=C2\NC(=O)NC2=O)c(C)n1-c1ccc(OCc2ccccc2F)cc1` [CBK264842] was tested, and the “% of control remaining” value was 100%.
With `CN(Cc1nc(-c2ccccc2)no1)C(=O)C1CC2(CCNCC2)CN1` (stereo not drawn) [CBK306585] the “% of control remaining” value was 101.422%.
`O=C(O)c1nnn(-c2ccccc2)c1-c1ccncc1` [CBK288041] was tested, and the “% of control remaining” value was 124.148%.
For `CN(C)C(CNC(=O)Nc1cccc(C(=O)NC2CC2)c1)c1cccs1` (stereo not drawn) [CBK305565], the “% of control remaining” value was 105.059%.
With `COc1ccc(Cn2nc(-c3nc(C)no3)c3ccccc32)cc1` [CBK105834] the “% of control remaining” value was 87.1616%.
`c1ccc2c(c1)nnn2CNCn1nnc2ccccc21` [CBK261114] was tested, and the “% of control remaining” value was 100%.
In the case of `Cc1c(Cc2ccccc2)c(=O)oc2c(CN3CCCC(C)C3)c(O)ccc12` (stereo not drawn) [CBK266995], the “% of control remaining” value is reported as 142.782%.
For `Cc1ccc([C@]2(O)CC[C@H]3CN(Cc4cccc(F)c4F)C[C@H]32)nc1` [CBK283088], the “% of control remaining” value was 128.837%.
With `O=C(c1ccccc1)N1C[C@@H](c2ccsc2)[C@@H]2CN(Cc3ccccc3F)CC[C@@H]21` [CBK285612] the “% of control remaining” value was 54.4482%.
For `Cc1cc(C(F)F)n2nc(C(=O)Nc3cccc(S(=O)(=O)N4CCOCC4)c3)nc2n1` [CBK266198], the “% of control remaining” value was 124.31%.
For `CNC(=O)C1(Cc2ccc(-c3cccc(C)c3)cc2)CCN(C(=O)CC(C)C)CC1` [CBK285787], the “% of control remaining” value was 99.96%.
For `CC(=O)Nc1ccc(S(=O)(=O)N2CCN(c3ccc([N+](=O)[O-])c(NC4C5CC6CC(C5)CC4C6)c3)CC2)cc1` (stereo not drawn) [CBK268802], the “% of control remaining” value was 140.927%.
In the case of `O=C(O)CCc1ccc(-c2cccs2)n1NC(=O)c1sc2ccccc2c1Cl` [CBK264782], the “% of control remaining” value is reported as 113.787%.
`COc1ccccc1N1CCN(/N=C\c2ccccc2OCC(=O)O)CC1` [CBK263173C] was tested, and the “% of control remaining” value was 100%.
`FC(F)(F)c1ccnc(Sc2cccc(Cl)c2)n1` [CBK115247] was tested, and the “% of control remaining” value was 74.7763%.
`CC(=O)Nc1ccc(-c2ccc(C(=O)N3CCC(Sc4ccccc4)CC3)cn2)cc1` [CBK160188] was tested, and the “% of control remaining” value was 107.942%.
With `CCn1cc(C(=O)N2C[C@H](C(=O)OC)[C@@H](c3ccc(F)cc3)C2)cn1` [CBK283719] the “% of control remaining” value was 121.209%.
`O=C(Cn1c(NCCO)nc2ccccc21)c1ccco1` [CBK264127B] was tested, and the “% of control remaining” value was 117.574%.
For `COc1ccccc1C1(O)CCCC2CN(C(C)=O)CC21` (stereo not drawn) [CBK283134], the “% of control remaining” value was 88.0574%.
For `CCOC(=O)c1cccnc1-c1cncnc1` [CBK149236], the “% of control remaining” value was 92.4861%.
In the case of `CC(=O)c1c(C)[nH]c(C(=O)N2CCN(C3CCN(C)CC3)CC2)c1C` [CBK149098], the “% of control remaining” value is reported as 94.5146%.
In the case of `COc1ccc(Cl)cc1S(=O)(=O)N1CCCC(C(=O)NCc2ccccn2)C1` (stereo not drawn) [CBK269761], the “% of control remaining” value is reported as 107.48%.
`CNC(=O)c1cccnc1N1CCN(CCCC(c2ccc(F)cc2)c2ccc(F)cc2)CC1` [CBK025309C] was tested, and the “% of control remaining” value was 109.932%.
With `O=c1[nH]c2cc(Cl)c(Br)nc2[nH]1` [CBK026531] the “% of control remaining” value was 122.731%.
For `O=C(NC1CCOCC1)c1n[nH]c2c1CCC2` [CBK174626], the “% of control remaining” value was 97.6887%.
`CCCS(=O)(=O)N1CCN(C(=O)c2cccnc2)CC1` [CBK264239] was tested, and the “% of control remaining” value was 140.147%.
`CN(C(=O)CN1CCN(c2cc(-c3cccc([N+](=O)[O-])c3)ncn2)CC1)c1ccccc1` [CBK091137] was tested, and the “% of control remaining” value was 123.319%.
With `CCn1c2ccccc2c2cc(/C=N/N3CCN(c4ccccc4OC)CC3)ccc21` [CBK101168] the “% of control remaining” value was 100%.
With `COc1ccc([C@@]23CC[C@@H](NC(=O)Nc4ccc(F)c(F)c4)C[C@@H]2N(C)CC3)cc1C#N` [CBK067952T] the “% of control remaining” value was 63.7796%.
With `O=C(O)C1C2CC(c3ccccc3)C(C2)C1C(=O)O` (stereo not drawn) [CBK287147] the “% of control remaining” value was 94.1362%.
For `CC1CC(=O)c2cn/c(=N\c3ccccc3)[nH]c2C1` (stereo not drawn) [CBK287884], the “% of control remaining” value was 109.929%.
In the case of `CCN(CC)C(=O)c1cn(CCC#N)nc1-c1cccc(OC)c1` [CBK305941], the “% of control remaining” value is reported as 128.207%.
`CCC1CCC2(CC1)NC(=O)N(Cc1cc(-c3ccccc3)on1)C2=O` (stereo not drawn) [CBK294977] was tested, and the “% of control remaining” value was 88.4833%.
